In assay [1] the target is T1, AtMKIP1-YFP (yeast, without cTP) (Arabidopsis thaliana) (UniProt D2WL32).
T1 sequence: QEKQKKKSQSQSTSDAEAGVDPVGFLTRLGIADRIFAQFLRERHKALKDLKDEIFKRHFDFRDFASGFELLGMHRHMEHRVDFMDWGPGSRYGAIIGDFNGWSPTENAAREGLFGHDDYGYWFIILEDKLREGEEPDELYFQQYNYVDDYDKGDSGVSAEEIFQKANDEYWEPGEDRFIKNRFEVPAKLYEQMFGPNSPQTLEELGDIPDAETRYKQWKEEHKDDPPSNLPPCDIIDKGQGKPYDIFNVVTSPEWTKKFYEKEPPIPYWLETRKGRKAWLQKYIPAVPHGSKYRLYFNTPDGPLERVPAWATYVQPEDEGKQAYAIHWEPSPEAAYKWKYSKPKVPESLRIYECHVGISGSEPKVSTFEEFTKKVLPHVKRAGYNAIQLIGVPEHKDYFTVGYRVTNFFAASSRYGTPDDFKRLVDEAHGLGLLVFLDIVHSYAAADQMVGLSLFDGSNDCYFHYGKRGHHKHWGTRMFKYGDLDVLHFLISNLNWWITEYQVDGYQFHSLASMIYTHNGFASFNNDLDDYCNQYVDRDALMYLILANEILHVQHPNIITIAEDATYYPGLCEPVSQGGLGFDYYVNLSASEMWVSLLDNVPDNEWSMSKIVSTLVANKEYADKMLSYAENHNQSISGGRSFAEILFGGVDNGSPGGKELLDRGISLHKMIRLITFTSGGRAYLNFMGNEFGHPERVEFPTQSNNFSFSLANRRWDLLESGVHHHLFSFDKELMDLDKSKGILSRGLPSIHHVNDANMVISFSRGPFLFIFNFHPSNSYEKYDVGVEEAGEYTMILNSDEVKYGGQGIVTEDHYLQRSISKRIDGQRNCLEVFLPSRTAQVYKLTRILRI
The assay is described as follows: co-IP; anti-YFP IP (GFP-Trap) from soluble extracts of glycogen-deficient yeast co-expressing a YFP-tagged bait and an HA-tagged AtMatK form; 0.1 M MOPS pH 7.75, 1% Triton X-100, 4 °C; immunoblot. In general terms: In western blotting, separated proteins are transferred to a membrane and probed.

Assay [2] addresses T2, NtMatK-HA (Nicotiana tabacum) (UniProt P12176).
T2 sequence: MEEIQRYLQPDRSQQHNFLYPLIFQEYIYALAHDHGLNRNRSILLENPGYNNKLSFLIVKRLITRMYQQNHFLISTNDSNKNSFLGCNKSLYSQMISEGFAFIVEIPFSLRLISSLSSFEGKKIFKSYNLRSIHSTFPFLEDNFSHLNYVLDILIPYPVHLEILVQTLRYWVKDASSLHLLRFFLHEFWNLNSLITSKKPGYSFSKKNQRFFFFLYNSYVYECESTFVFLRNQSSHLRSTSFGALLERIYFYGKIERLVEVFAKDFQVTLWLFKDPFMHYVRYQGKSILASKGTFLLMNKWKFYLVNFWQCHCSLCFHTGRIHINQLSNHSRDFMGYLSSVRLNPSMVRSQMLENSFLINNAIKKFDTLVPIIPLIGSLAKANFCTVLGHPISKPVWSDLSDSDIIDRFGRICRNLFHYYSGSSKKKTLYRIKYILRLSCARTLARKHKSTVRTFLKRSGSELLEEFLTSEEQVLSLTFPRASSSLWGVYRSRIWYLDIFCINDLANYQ
Description: co-IP; anti-HA IP (magnetic beads) of each size-exclusion fraction of NtMatK C+ tobacco stroma; immunoblot. In general terms: In gel filtration, larger molecules generally elute earlier.

In assay [3] the target is T2, NtMatK-HA (Nicotiana tabacum). The assay is described as follows: co-IP; anti-HA IP from soluble protein of 10-day-old NtMatK C+ tobacco seedlings (NtMatK C- as control), with or without RNase A/T1 during the incubation with beads; immunoblot.
The target is the same in assay [4]. The assay is described as follows: SEC; chloroplast stromal extract of NtMatK C+ tobacco on Superose 6 Increase 10/300 in 50 mM HEPES-KOH pH 7.8, 1 mM MgCl2; fractions read by immunoblot, fractions 5 and 6 by MS/MS.
Assay [5] deals with C-terminal AtMatK-HA segment (AA 357-526) (Arabidopsis thaliana). The assay is described as follows: co-IP; reciprocal: anti-HA IP (magnetic beads) from soluble extracts of yeast co-expressing an HA-tagged AtMatK bait and a YFP-tagged protein; immunoblot.
Assay [6] deals with N-terminal AtMatK-HA segment (AA 1-381) (Arabidopsis thaliana). The assay is described as above.
In assay [7] the target is AtEMB3120-YFP (Arabidopsis thaliana). Description: co-IP; anti-YFP IP (GFP-Trap) from soluble extracts of Arabidopsis lines expressing YFP-tagged baits, AtBE3-YFP as control; 50 mM Tris-HCl pH 8.0, 150 mM NaCl, 1% Triton X-100, 4 °C; immunoblot.

No constants are given. Whether binding was seen depends on the method and setting. For some of these results: Binding calls can cover weak binding; strength is not graded here. For some of these results: Tags and fused reporters may be left off the sequences shown. For some of these results: In cells and extracts the contact can be indirect.

As to “C-terminal AtMatK-HA segment (AA 357-526) (Arabidopsis thaliana) (domain or fragment)”, the binding entry in assay [1] was “no binding”.

Regarding “N-terminal AtMatK-HA segment (AA 1-381) (Arabidopsis thaliana) (domain or fragment)”, in assay [1], the binding result is “binds”.

For the molecule NtMKIP1, the binding result in assay [2], in assay [3] and in assay [4] was “binds” throughout.

In the case of NtValRS2, the binding result in assay [2] and in assay [4] was “binds” throughout.

B1: AtMKIP1-YFP (yeast, without cTP) (protein, UniProt D2WL32 50-899)
chain: QEKQKKKSQSQSTSDAEAGVDPVGFLTRLGIADRIFAQFLRERHKALKDLKDEIFKRHFDFRDFASGFELLGMHRHMEHRVDFMDWGPGSRYGAIIGDFNGWSPTENAAREGLFGHDDYGYWFIILEDKLREGEEPDELYFQQYNYVDDYDKGDSGVSAEEIFQKANDEYWEPGEDRFIKNRFEVPAKLYEQMFGPNSPQTLEELGDIPDAETRYKQWKEEHKDDPPSNLPPCDIIDKGQGKPYDIFNVVTSPEWTKKFYEKEPPIPYWLETRKGRKAWLQKYIPAVPHGSKYRLYFNTPDGPLERVPAWATYVQPEDEGKQAYAIHWEPSPEAAYKWKYSKPKVPESLRIYECHVGISGSEPKVSTFEEFTKKVLPHVKRAGYNAIQLIGVPEHKDYFTVGYRVTNFFAASSRYGTPDDFKRLVDEAHGLGLLVFLDIVHSYAAADQMVGLSLFDGSNDCYFHYGKRGHHKHWGTRMFKYGDLDVLHFLISNLNWWITEYQVDGYQFHSLASMIYTHNGFASFNNDLDDYCNQYVDRDALMYLILANEILHVQHPNIITIAEDATYYPGLCEPVSQGGLGFDYYVNLSASEMWVSLLDNVPDNEWSMSKIVSTLVANKEYADKMLSYAENHNQSISGGRSFAEILFGGVDNGSPGGKELLDRGISLHKMIRLITFTSGGRAYLNFMGNEFGHPERVEFPTQSNNFSFSLANRRWDLLESGVHHHLFSFDKELMDLDKSKGILSRGLPSIHHVNDANMVISFSRGPFLFIFNFHPSNSYEKYDVGVEEAGEYTMILNSDEVKYGGQGIVTEDHYLQRSISKRIDGQRNCLEVFLPSRTAQVYKLTRILRI
As to B1, the binding result is given as “no binding” in assay [5] and “binds” in assay [6].

B2: AtMKIP1 (endogenous) (protein, UniProt D2WL32 50-899)
chain: QEKQKKKSQSQSTSDAEAGVDPVGFLTRLGIADRIFAQFLRERHKALKDLKDEIFKRHFDFRDFASGFELLGMHRHMEHRVDFMDWGPGSRYGAIIGDFNGWSPTENAAREGLFGHDDYGYWFIILEDKLREGEEPDELYFQQYNYVDDYDKGDSGVSAEEIFQKANDEYWEPGEDRFIKNRFEVPAKLYEQMFGPNSPQTLEELGDIPDAETRYKQWKEEHKDDPPSNLPPCDIIDKGQGKPYDIFNVVTSPEWTKKFYEKEPPIPYWLETRKGRKAWLQKYIPAVPHGSKYRLYFNTPDGPLERVPAWATYVQPEDEGKQAYAIHWEPSPEAAYKWKYSKPKVPESLRIYECHVGISGSEPKVSTFEEFTKKVLPHVKRAGYNAIQLIGVPEHKDYFTVGYRVTNFFAASSRYGTPDDFKRLVDEAHGLGLLVFLDIVHSYAAADQMVGLSLFDGSNDCYFHYGKRGHHKHWGTRMFKYGDLDVLHFLISNLNWWITEYQVDGYQFHSLASMIYTHNGFASFNNDLDDYCNQYVDRDALMYLILANEILHVQHPNIITIAEDATYYPGLCEPVSQGGLGFDYYVNLSASEMWVSLLDNVPDNEWSMSKIVSTLVANKEYADKMLSYAENHNQSISGGRSFAEILFGGVDNGSPGGKELLDRGISLHKMIRLITFTSGGRAYLNFMGNEFGHPERVEFPTQSNNFSFSLANRRWDLLESGVHHHLFSFDKELMDLDKSKGILSRGLPSIHHVNDANMVISFSRGPFLFIFNFHPSNSYEKYDVGVEEAGEYTMILNSDEVKYGGQGIVTEDHYLQRSISKRIDGQRNCLEVFLPSRTAQVYKLTRILRI
In the case of B2, in assay [7], the binding result is reported as “binds”.

These data come from publication PMC13172542.
